Measurements from US20180149606A1, “XENON BASED DRUG PROTEIN BINDING ASSAY” (priority 2016, published 2018).

Assay: Xenon T2 in solutions with a high concentration of drug alone
Conditions: no protein, 1×PBS

Cc1onc(-c2c(F)cccc2Cl)c1C(=O)N[C@@H]1C(=O)N2[C@@H]1SC(C)(C)[C@@H]2C(=O)O [Flucloxacillin, flucloxacillin]
T2 of xenon in drug solution (0.0021 M drug): 43 ± 1 s

Cn1c(=O)c2c(ncn2C)n(C)c1=O [Caffeine, caffeine]
T2 of xenon in drug solution (0.057 M drug): 25.8 ± 0.2 s

CCCCCCCC/C=C\CCCCCCCC(=O)[O-].[Na+] [Sodium Oleate, sodium oleate]
T2 of xenon in drug solution (0.00003 M drug): 34 ± 1 s

O=C([O-])c1ccccc1O.[Na+] [Salicylate, sodium salicylate]
T2 of xenon in drug solution (0.0014 M drug): 50 ± 1 s
